The whole screen tested about 1,600 compounds, of which about 25 (2%) were called active. Roughly 7% stayed inconclusive and do not appear here. The call rests on the fitted dose curve; in most records, active means well fitted inhibition curve with a large enough effect; inconclusive means small, poorly fitted or top-dose-only effect, or effect the other way; inactive means no such curve, though single readings can be large or run the other way. The list shows a part of the results.
On the % scale 0 is the no-effect control and ±100 the full control effect; potency means the concentration at half of the fitted maximal effect.

Protein sequences, listed by entry. Tags and fused reporters are not part of them.
UniProt Q01196, whole entry, looked up: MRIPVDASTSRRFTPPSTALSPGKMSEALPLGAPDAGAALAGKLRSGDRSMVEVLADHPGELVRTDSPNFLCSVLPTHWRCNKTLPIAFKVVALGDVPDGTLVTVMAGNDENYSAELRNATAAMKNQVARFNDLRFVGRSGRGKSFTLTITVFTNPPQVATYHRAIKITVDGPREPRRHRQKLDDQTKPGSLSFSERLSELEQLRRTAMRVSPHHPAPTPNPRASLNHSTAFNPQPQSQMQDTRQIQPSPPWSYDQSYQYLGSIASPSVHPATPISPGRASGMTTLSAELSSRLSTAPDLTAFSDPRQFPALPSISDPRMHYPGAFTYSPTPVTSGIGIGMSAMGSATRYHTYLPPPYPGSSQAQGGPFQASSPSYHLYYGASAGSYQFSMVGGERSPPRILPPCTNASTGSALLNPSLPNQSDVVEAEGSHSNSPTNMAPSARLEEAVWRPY
UniProt Q13951, whole entry, looked up: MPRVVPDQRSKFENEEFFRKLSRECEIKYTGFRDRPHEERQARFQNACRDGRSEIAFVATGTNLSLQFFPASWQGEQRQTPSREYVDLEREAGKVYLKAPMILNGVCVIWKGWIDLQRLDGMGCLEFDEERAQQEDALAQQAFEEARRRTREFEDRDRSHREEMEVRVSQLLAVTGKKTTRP

The test concerns the target Runt-related transcription factor 1 (Homo sapiens) + Core-binding factor subunit beta (Homo sapiens) (UniProt Q01196+Q13951). Briefly: qHTS Assay for Compounds Blocking the Interaction Between CBF-beta and RUNX1 for the Treatment of Acute Myeloid Leukemia: Hit Validation with Orthogonal Assay. Conditions: CBFbeta-RUNX1 binding orthogonal assay, biochemical; series mostly up to 41 µM; activity change, negative = inhibition: at the top concentration. The source says: NIH Chemical Genomics Center [NCGC]
NIH Molecular Libraries Probe Production centers Network [MLPCN]
Assay Submitter (PI): Paul Liu
Core Binding Factor (CBF) abnormalities are associated with 20-25% of all acute myeloid leukemias (AML), of which 5-10% are further sub classified as acute myelomonocytic leukemia with eosinophilia, also known as M4Eo in the FAB classification scheme. This subtype of leukemia is usually associated with chromosome 16 inversion (p13:q22). Chromosome 16 inversion results in formation of the fusion oncogene CBFB-MYH11, which encodes the fusion protein CBF-beta-SMMHC.
It has been hypothesized that the interference of CBF-beta and RUNX1 binding could have therapeutic implications for patients with CBF mediated leukemias. We developed a CBF-beta and RUNX1 binding assay in AlphaScreenTM format and optimized it for high throughput screening to search for inhibitors. The goal of this project is to screen MLPCN's compound collection (MLSMR) for identifying the inhibitors of the interaction between CBF-beta and RUNX1 proteins as research probes. If these probes work well in the animal models, the ultimate goal of this project is to development a new drug treatment for this disease.
This assay can not be used to assess how apparent inhibitors interfere with protein binding, and whether inhibitors specifically bind to either protein. Disruption of this protein-protein interaction, through any mechanism, is the intended target activity.
The present data set was run to confirm the activity of hits from the primary screen using an orthogonal assay technology for measuring protein-protein interaction disruption.
A TR-FRET (time resolved fluorescence resonance energy transfer) assay was performed using the same assay buffer, protein concentrations and incubation times as described previously in the AlphaScreen assay, except that terbium (Tb+) labeled anti-his-antibody and XL665 linked streptavidin were used to capture the binding signal. The Tb+ labeled anti-his-antibody captures His(6)-CBF and XL665 linked streptavidin binds to biotin-RUNX1. The binding of RUNX1 to CBFbrings Tb+ and XL665 to proximity resulting in a TR-FRET signal. Briefly, in a white 384-well plate, 10 µl/well of mixture of biotin-RUNX1 and His(6)-CBFwere incubated with 10 µl/well buffer (positive control) or 10 µl/well compounds (negative control) for 20 min followed by an addition of 10 µl/well of Tb+ labeled anti-his(6)-antibody and XL665 linked streptavidin. After 90 min of incubation in the dark, the assay plate was measured in the Envision plate reader using TR-FRET detection mode. For the 1536-well plate format, 3 µl/well mixture of biotin-RUNX1 and His(6)-CBF (30 nM per protein) was incubated with 23 nl/well compound (dissolved in 100% DMSO) or the equivalent DMSO concentration (positive control) for 30 min followed by the addition of 1 µl/well of 0.44 ng Tb+ labeled anti-his(6)-antibody and 5 nM streptavodin-XL665. After 90 min of incubation, the assay plate was measured in the Envision plate reader.
The TR-FRET assay for detecting interaction between HIV-I Tat and […] was similarly performed with the recombinant full-length HIV-I Tat CLADE B and HIV-I Tat Biotin conjugated proteins supplied by Diatheva (Fano, Italy). Briefly, the His-CBF and Biotin-RUNX1 complex at a working concentration of 83.3 nM per protein were pre-incubated in assay buffer for 10 minutes on ice. Then HIV-I Tat or unlabeled CBF were added to reach final concentrations (Supplementary Figure 4b) and incubated for 5 minutes. Finally anti-His antibody and streptavidin-XL665 at a final concentration of 2.2 ng and 5 nM, respectively, were added to the plate, which was incubated for 1 hr prior to reading on the PerkinElmer Envision plate reader.
Keywords: MLSMR, MLPCN, NIH Roadmap, qHTS, NCGC, Core binding factor, CBF, CBF-beta, Acute myeloid leukemia
With `C/C(=N\Nc1ccc(Cl)c(C(=O)O)c1)c1ccccn1`, the “activity change, negative = inhibition” value was inactive: -8.44%. The same measure, in the same setting: in the case of `CN(C(=O)Nc1ccc(Cl)cc1)n1cnc2ccccc2c1=O` it was inactive: -3.24%; in that of `N#Cc1c(-c2ccccc2Cl)c2c([nH]c1=O)-c1ccccc1OC2`, inactive: 25.6%; in that of `Cc1ccc2[nH]cc(CCNC(=O)/C=C/c3ccco3)c2c1`, inactive: 21.1%. On the same count and under the same terms, under `Cc1ccc(NC(=O)N2CCCn3c(SCC(=O)c4ccccc4)nnc32)cc1` stands inactive: -3.05%. Consider `O=C1/C(=C/c2ccsc2)N2CCC1CC2`, for which the “activity change, negative = inhibition” value was inactive: -6.79%.

Consider `CCOc1ccc(N2CSC(=S)N(c3ccc(OCC)cc3)C2)cc1`, for which the “activity change, negative = inhibition” value is inactive: -4.28%.

Take `COC(=O)c1cnc(NNS(=O)(=O)c2ccc(Cl)cc2)nc1C(F)(F)F`: the “activity change, negative = inhibition” value was inactive: 5.71%.

Consider `CCOc1nsc(OCC)n1`, for which the “activity change, negative = inhibition” value was inactive: 8.39%. On the same count and under the same terms, under `CCOC(=O)c1cc(-c2ccccc2)nc2ccc(C)cc12` stands inactive: 4.67%; under `CNC(=O)C(=O)N/N=C/c1cccnc1`, inactive: -5.48%. The same measure, in the same setting: in the case of `CN(C)C(=S)Nc1ccc(Cl)cc1` it was inactive: -10.5%.

Regarding `O=C(NC1CCN(C(=O)c2cccs2)CC1)c1ccccc1`, the “activity change, negative = inhibition” value was inactive: 3.49%. Still for that read-out and setting: in the case of `O=[N+]([O-])c1ccc2[nH]c(O)c(N=NC3CS(=O)(=O)CC3O)c2c1` (stereo not given) it was inactive: 46.9%; in that of `CCOc1cc(/C=N/n2c(C)nnc2C)ccc1O`, inactive: -5.3%; in that of `COc1ccc(CNc2nc3nc(C)c(Cl)c(C)n3n2)cc1`, inactive: -2.9%. Still for that read-out and setting: in the case of `O=C(c1ccccc1)C1C(c2ccccc2)C1[N+](=O)[O-]` (stereo not given) it was inactive: -5.25%.

As to `Cc1cc([N+](=O)[O-])nn1CC(=O)N/N=C/c1ccccc1F`, the “activity change, negative = inhibition” value is inactive: 11.7%.

Regarding `CCOC(=O)c1sc(NC(=O)CSC(=S)N2CCN(C)CC2)nc1C`, the “activity change, negative = inhibition” value is inactive: -20.5%. The same measure, in the same setting: in the case of `CC(=O)c1sc(C(C)(C)C)cc1NC(=O)/C=C/C(=O)O` it was inactive: 5.88%.

As for `Cn1c(-c2ccc3ccccc3n2)[n+](C)c2ccccc21`, the “activity change, negative = inhibition” value was inactive: 16.1%. Consider `Cc1[nH][nH]c(=O)c1C(c1ccc(N(C)C)c(Br)c1)c1c(C)[nH][nH]c1=O`, for which the “activity change, negative = inhibition” value is inactive: 16.4%.

As to `CCOC(=O)c1sc(=S)n(-c2ccc(OC)cc2)c1N`, the “activity change, negative = inhibition” value is inactive: 57.8%.

As for `Cc1nn(C)c(C)c1NC(=O)c1ccccc1NC(=O)Nc1ccccc1`, the “activity change, negative = inhibition” value is inactive: 3.06%. The same measure, in the same setting: in the case of `COc1ccc2c(c1)[nH]c1c(N3CCSCC3)ncnc12` it was inactive: 3.21%. The same measure, in the same setting: in the case of `Clc1ccc(C2=Nn3c(Cn4nnc5ccccc54)nnc3SC2)cc1` it was inactive: 2.69%; in that of `NC(=O)c1ccccc1OCC(=O)Nc1ccc(Cl)c(Cl)c1`, inactive: 0.0612%; in that of `COc1cc(/C=C2\SC(=S)N(NC(=O)c3ccncc3)C2=O)ccc1O`, inactive: 72.8%.

`CCCOc1ccc(CSC(=N)N)cc1C(=O)OC`: the “activity change, negative = inhibition” value was inactive: -1.37%. Still for that read-out and setting: under `CC(C)CCCC(C)CCOC(=O)CN1CCCC1` (stereo not given) stands inactive: -7.65%; under `O=C(O)c1cccc(COc2ccc3c(c2)CCC3)c1`, inactive: -20.8%. On the same count and under the same terms, under `COc1ccccc1N1CC(C)(C)C(=O)N(C(=O)c2c(F)cccc2Cl)C1=S` stands inactive: 5.88%. Same read-out and setting: under `COc1cc(C(=O)NC(=S)Nc2ccc3c(c2)OCO3)cc(OC)c1OC` stands inactive: 2.92%; under `Nc1nn(-c2ccccc2)c(N)c1N=Nc1cccc(F)c1`, inactive: 46.2%; under `NC(=O)NN=C1C2CCCC1C(c1ccccc1)NC2c1ccccc1` (stereo not given), inactive: 3.94%. With `Cc1cc(C(F)(F)F)cc(NNC(=O)NC(=O)c2ccccc2Cl)n1`, the “activity change, negative = inhibition” value was inactive: 7.22%. On the same count and under the same terms, under `N/C(=N\OC(=O)c1cnn(-c2ccccc2)c1C(F)(F)F)c1cc(C(F)(F)F)cc(C(F)(F)F)c1` stands inactive: 14.9%; under `Cc1nc(SCCO)c([N+](=O)[O-])[nH]1`, inactive: 21.3%; under `O=C(N/N=C/c1ccccc1[N+](=O)[O-])c1cnccn1`, inactive: 72.5%. Same read-out and setting: under `O=C(c1ccccc1)c1ccc2c(c1)OCCCO2` stands inactive: -7.14%. Same read-out and setting: in the case of `CC(=O)c1c(C)nc(Nc2nc3ccccc3s2)nc1C` it was inactive: 8.18%; in that of `Cc1oc(S(=O)(=O)N2CCOCC2)cc1C(=O)Nc1ccc(Cl)cc1`, inactive: -6.9%; in that of `Cc1cc(=O)[nH]c(N/N=C/c2ccc3c(c2)OCCO3)n1`, inactive: 19.5%. As to `COc1ccc(/C=N/NC(=O)CCn2cnc3ccccc32)cc1`, the “activity change, negative = inhibition” value is inactive: -2.9%.

Consider `O=C(N/N=C/c1ccc(Br)s1)c1ccco1`, for which the “activity change, negative = inhibition” value was inactive: 17.6%. Same read-out and setting: under `CN1C(CC(=O)Nc2ccc(Cl)cc2Cl)c2ccccc2CC1(C)C` (stereo not given) stands inactive: 2.79%. For the compound `COc1ccc2[nH]c(=O)c(CN(C(=O)c3cccnc3)c3cccc(C)c3)cc2c1`, the “activity change, negative = inhibition” value is inactive: -9.76%. In the case of `Cc1[nH]c2ccccc2c1C(=O)CSC(=S)N1CCN(C)CC1`, the “activity change, negative = inhibition” value was inactive: -14.2%.

On to `CCSc1nc(C)c(C)c(=O)[nH]1`, for which the “activity change, negative = inhibition” value was inactive: 8.66%. Same read-out and setting: under `COC(=O)c1[nH]c2cc(OC)ccc2c1N=CN(C)C` stands inactive: 28.9%; under `CC(C)CCNC(=O)C(=O)NCc1ccccc1`, inactive: -21.2%.

For the compound `C(=C\c1nccc2c1[nH]c1ccccc12)/c1ccccc1`, the “activity change, negative = inhibition” value was inactive: 10.1%. Same read-out and setting: in the case of `O=C(Oc1ccc2c(c1)O/C(=C\c1ccncc1)C2=O)c1cccs1` it was inactive: 10.4%.

For the compound `CCOC(=O)c1c2c([nH]c(=S)c1C#N)CCCC2`, the “activity change, negative = inhibition” value was inactive: 17.9%. On the same count and under the same terms, under `Cn1ncc(Br)c1N1C(=O)CCC1=O` stands inactive: 1.93%; under `CC(C)Cn1nc(NC(=O)c2cccs2)c2cc3ccccc3nc21`, inactive: 20.5%; under `CNC(=O)Nc1cc(NC(=O)NC)cc(C(F)(F)F)c1`, inactive: -11.8%.

Consider `CN(C)c1cc(-c2cccc([N+](=O)[O-])c2)oc(=O)c1Cl`, for which the “activity change, negative = inhibition” value is inactive: 26.4%. The same measure, in the same setting: in the case of `CC(=O)c1sccc1NC(=O)c1ccccc1C(=O)O` it was inactive: 3.8%.

Turning to `Oc1cccc(O)c1O`, the Potency was active: 888 nM.

The values are drawn from PubChem BioAssay AID504375 (National Center for Advancing Translational Sciences (NCATS), 2011).
